Results are given in words; binding and its absence hold for the method and conditions named. Binding seen in cells or lysates may run through a third protein. Some entries that bind do so weakly or less than the wild type.

Amino acid sequences for entries named in this document (tags omitted). Residues count along the entry.
UniProt P06240, residues 2-509: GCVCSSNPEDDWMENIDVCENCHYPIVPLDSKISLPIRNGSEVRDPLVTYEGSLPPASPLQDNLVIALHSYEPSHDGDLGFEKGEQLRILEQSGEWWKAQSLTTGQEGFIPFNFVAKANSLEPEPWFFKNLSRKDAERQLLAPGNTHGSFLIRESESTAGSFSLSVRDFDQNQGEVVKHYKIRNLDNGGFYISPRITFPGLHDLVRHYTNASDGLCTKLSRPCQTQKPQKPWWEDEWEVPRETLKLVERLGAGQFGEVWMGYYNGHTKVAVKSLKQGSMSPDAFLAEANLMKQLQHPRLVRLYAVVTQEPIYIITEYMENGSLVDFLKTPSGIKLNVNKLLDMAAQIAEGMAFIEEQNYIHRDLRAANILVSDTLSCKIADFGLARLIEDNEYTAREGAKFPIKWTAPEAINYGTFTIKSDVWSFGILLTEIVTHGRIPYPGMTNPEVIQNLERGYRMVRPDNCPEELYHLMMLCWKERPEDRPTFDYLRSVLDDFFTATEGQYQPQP
UniProt P29351: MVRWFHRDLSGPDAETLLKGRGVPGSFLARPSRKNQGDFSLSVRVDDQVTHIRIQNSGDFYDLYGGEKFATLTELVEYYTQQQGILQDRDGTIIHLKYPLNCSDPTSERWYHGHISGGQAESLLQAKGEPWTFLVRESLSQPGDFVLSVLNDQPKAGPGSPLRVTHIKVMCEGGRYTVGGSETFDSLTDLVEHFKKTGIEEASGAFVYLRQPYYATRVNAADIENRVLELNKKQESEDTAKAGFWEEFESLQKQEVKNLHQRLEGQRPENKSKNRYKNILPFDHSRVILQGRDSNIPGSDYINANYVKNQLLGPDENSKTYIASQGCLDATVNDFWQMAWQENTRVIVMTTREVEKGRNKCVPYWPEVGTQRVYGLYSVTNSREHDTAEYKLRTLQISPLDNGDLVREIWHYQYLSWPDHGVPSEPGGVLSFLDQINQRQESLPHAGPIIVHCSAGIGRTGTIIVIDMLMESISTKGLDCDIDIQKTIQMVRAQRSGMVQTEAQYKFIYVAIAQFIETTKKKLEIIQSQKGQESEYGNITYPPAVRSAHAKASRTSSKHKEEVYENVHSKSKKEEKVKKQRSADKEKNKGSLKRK

For test [1], the target named is Lck (mouse) (UniProt P06240). Kind of test: co-immunoprecipitation with anti-Lck from 5C.C7 T cell lysates, Western blot. Background: A western blot detects proteins with antibodies after separation by electrophoresis.
Test [2] addresses Lck (mouse) (UniProt P06240). Kind of test: co-immunoprecipitation with anti-Lck, control against miR-181a T cell blasts.

Turning to “SHP-1 (from UniProt P29351 1-595) (enzyme)”, the binding result in the test with Lck (mouse) [1] and with Lck (mouse) [2] was “binds” each time.

The values are drawn from US20080200416A1.
